According to patent US20120316113A1, “FGF BASED FIBRIN BINDING PEPTIDES” (Baxter Healthcare S.A., priority 2011, published 2012):
Results are given in words; binding and its absence hold for the method and conditions named. Some results given as binding are weak or reduced against the parent protein; the word gives no strength.

Amino acid sequences for entries named in this document (tags omitted). A change or cut given only in a name is not applied to a line headed by its entry.
UniProt P02671: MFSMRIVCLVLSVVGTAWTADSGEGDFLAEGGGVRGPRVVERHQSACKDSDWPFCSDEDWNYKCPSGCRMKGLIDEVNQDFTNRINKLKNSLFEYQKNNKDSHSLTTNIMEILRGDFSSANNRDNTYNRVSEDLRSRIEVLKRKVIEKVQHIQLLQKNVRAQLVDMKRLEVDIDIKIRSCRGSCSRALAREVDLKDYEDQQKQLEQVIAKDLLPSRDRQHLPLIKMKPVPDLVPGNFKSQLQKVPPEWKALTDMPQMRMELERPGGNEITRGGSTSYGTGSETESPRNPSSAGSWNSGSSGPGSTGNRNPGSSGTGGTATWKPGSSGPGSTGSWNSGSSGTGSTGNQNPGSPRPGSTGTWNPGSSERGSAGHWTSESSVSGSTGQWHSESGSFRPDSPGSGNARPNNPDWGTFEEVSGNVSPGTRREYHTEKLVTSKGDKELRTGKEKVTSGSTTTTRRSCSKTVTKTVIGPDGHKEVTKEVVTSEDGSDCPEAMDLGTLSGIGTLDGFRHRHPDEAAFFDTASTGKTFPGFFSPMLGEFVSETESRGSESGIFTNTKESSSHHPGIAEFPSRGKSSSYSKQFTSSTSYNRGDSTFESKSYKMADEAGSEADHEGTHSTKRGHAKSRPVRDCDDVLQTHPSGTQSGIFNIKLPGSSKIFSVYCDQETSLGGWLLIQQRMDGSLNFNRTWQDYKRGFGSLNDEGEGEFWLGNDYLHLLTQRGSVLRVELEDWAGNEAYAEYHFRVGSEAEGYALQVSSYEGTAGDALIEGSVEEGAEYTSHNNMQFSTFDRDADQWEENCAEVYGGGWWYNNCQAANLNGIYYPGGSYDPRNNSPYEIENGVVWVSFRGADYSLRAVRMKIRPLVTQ
UniProt P09038: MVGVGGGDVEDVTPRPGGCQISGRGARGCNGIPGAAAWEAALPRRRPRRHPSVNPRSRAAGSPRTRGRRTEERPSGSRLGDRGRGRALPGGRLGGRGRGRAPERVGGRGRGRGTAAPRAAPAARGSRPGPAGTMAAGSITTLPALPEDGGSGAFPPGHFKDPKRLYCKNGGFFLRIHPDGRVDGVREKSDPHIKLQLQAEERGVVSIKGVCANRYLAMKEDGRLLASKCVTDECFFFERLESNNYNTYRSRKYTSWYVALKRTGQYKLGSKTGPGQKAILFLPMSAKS

Assays:
[1] = target: fibrinogen (Tisseel, Baxter AG, Vienna) (UniProt P02671); experiment: ELISA on coated fibrinogen, anti-His6-peroxidase detection
[2] = target: fibrinogen (Tisseel, Baxter AG, Vienna) (UniProt P02671); experiment: SPR, fibrinogen amine-coupled to a gold chip
[3] = target: fibrinogen (Tisseel, Baxter AG, Vienna) (UniProt P02671); experiment: SPR, fibrinogen amine-coupled to a gold chip; fitted association curves

Measured: binding

recombinant full-length human Fibroblast Growth Factor 2 with C-terminal 6x HIS-tag (from UniProt P09038 134-288) (ligand)
binds: [1] | [2] | [3]
